Test results: patent US7947715B2, “Isoxazoline compound and pesticide” (Nissan Chemical Industries, Ltd., priority 2006, dated 2011)
Some of these results come from one statement about several compounds together. At least one structure is not confirmed: it was looked up by name or label, or the drawing left a doubt.

Test system: cabbage moth (Plutella xylostella)
Experiment: Insecticidal test against cabbage moth (leaf dip)
Format: in vivo
Conditions: second instar larva, after 6 days

| Compound | insecticidal rate (rate of dead insects) (500 ppm) [%] | insecticidal rate (rate of dead insects) (100 ppm (*)) [%] | further results |
| --- | --- | --- | --- |
| O=C(CC1CCCC1)NCc1ccc(C2=NOC(c3cc(Cl)cc(Cl)c3)(C(F)(F)F)C2)cc1 (racemic) [2-003] | ≥ 80 |  |  |
| O=C(CC1CCCCC1)NCc1ccc(C2=NOC(c3cc(Cl)cc(Cl)c3)(C(F)(F)F)C2)cc1 (racemic) [2-004] | ≥ 80 |  |  |
| O=C(CC(F)(F)F)NCc1ccc(C2=NOC(c3cc(Cl)cc(Cl)c3)(C(F)(F)F)C2)cc1 (racemic) [2-005] |  | ≥ 80 |  |
| COCCC(=O)NCc1ccc(C2=NOC(c3cc(Cl)cc(Cl)c3)(C(F)(F)F)C2)cc1 (racemic) [2-006] |  | ≥ 80 |  |
| C#CCCC(=O)NCc1ccc(C2=NOC(c3cc(Cl)cc(Cl)c3)(C(F)(F)F)C2)cc1 (racemic) [2-009] |  | ≥ 80 |  |
| O=C(Cc1ccccn1)NCc1ccc(C2=NOC(c3cc(Cl)cc(Cl)c3)(C(F)(F)F)C2)cc1 (racemic) [2-010] |  | ≥ 80 |  |
| O=C(Cc1cccnc1)NCc1ccc(C2=NOC(c3cc(Cl)cc(Cl)c3)(C(F)(F)F)C2)cc1 (racemic) [2-011] | ≥ 80 |  |  |
| O=C(Cc1ccncc1)NCc1ccc(C2=NOC(c3cc(Cl)cc(Cl)c3)(C(F)(F)F)C2)cc1 (racemic) [2-012] | ≥ 80 |  |  |
| COc1cscc1C(=O)NCc1ccc(C2=NOC(c3cc(Cl)cc(Cl)c3)(C(F)(F)F)C2)cc1 (racemic) [2-014] | ≥ 80 |  |  |
| O=C(NCc1ccc(C2=NOC(c3cc(Cl)cc(Cl)c3)(C(F)(F)F)C2)cc1)c1ccccn1 (racemic) [2-015] | ≥ 80 |  |  |
| O=C(CC(F)(F)F)NCc1ccc(C2=NOC(c3cc(Cl)cc(Cl)c3)(C(F)(F)F)C2)cc1F (racemic) [2-029] | ≥ 80 |  |  |
| CC(C)C(=O)NCc1ccc(C2=NOC(c3cc(Cl)cc(Cl)c3)(C(F)(F)F)C2)cc1Cl (racemic) [2-030] | ≥ 80 |  |  |
| O=C(NCc1ccc(C2=NOC(c3cc(Cl)cc(Cl)c3)(C(F)(F)F)C2)cc1Cl)C1CC1 (racemic) [2-031] |  |  | insecticidal rate (rate of dead insects) (10 ppm (**)): ≥ 80% |
| O=C(CC(C(F)(F)F)C(F)(F)F)NCc1ccc(C2=NOC(c3cc(Cl)cc(Cl)c3)(C(F)(F)F)C2)cc1Cl (racemic) [2-063] |  | ≥ 80 |  |
| CC1(C)C(C(=O)NCc2ccc(C3=NOC(c4cc(Cl)cc(Cl)c4)(C(F)(F)F)C3)cc2Cl)C1(C)C (racemic) [2-064] | ≥ 80 |  |  |
| COCC(=O)NCc1ccc(C2=NOC(c3cc(Cl)cc(Cl)c3)(C(F)(F)F)C2)cc1Cl (racemic) [2-066] |  | ≥ 80 |  |
| O=C(COc1ccc(F)cc1)NCc1ccc(C2=NOC(c3cc(Cl)cc(Cl)c3)(C(F)(F)F)C2)cc1Cl (racemic) [2-067] | ≥ 80 |  |  |
| COCCC(=O)NCc1ccc(C2=NOC(c3cc(Cl)cc(Cl)c3)(C(F)(F)F)C2)cc1Cl (racemic) [2-068] |  |  | insecticidal rate (rate of dead insects) (10 ppm (**)): ≥ 80% |
| CSCC(=O)NCc1ccc(C2=NOC(c3cc(Cl)cc(Cl)c3)(C(F)(F)F)C2)cc1Cl (racemic) [2-069] |  |  | insecticidal rate (rate of dead insects) (10 ppm (**)): ≥ 80% |
| CS(=O)(=O)CC(=O)NCc1ccc(C2=NOC(c3cc(Cl)cc(Cl)c3)(C(F)(F)F)C2)cc1Cl (racemic) [2-070] |  | ≥ 80 |  |
| O=C(CNC(=O)c1ccccc1)NCc1ccc(C2=NOC(c3cc(Cl)cc(Cl)c3)(C(F)(F)F)C2)cc1Cl (racemic) [2-071] | ≥ 80 |  |  |
| N#CC1(C(=O)NCc2ccc(C3=NOC(c4cc(Cl)cc(Cl)c4)(C(F)(F)F)C3)cc2Cl)CC1 (racemic) [2-072] |  | ≥ 80 |  |
| C#CCCC(=O)NCc1ccc(C2=NOC(c3cc(Cl)cc(Cl)c3)(C(F)(F)F)C2)cc1Cl (racemic) [2-073] |  | ≥ 80 |  |
| O=C(Cc1ccc(F)cc1)NCc1ccc(C2=NOC(c3cc(Cl)cc(Cl)c3)(C(F)(F)F)C2)cc1Cl (racemic) [2-074] | ≥ 80 |  |  |
